Data: publication PMC10974317, “Anti-COVID Drugs (MMV COVID Box) as Leishmanicidal Agents: Unveiling New Therapeutic Horizons” (Pharmaceuticals, 2024)

What was measured:
[1] = system: Leishmania amazonensis promastigotes; assay: Leishmanicidal activity against promastigotes (alamarBlue assay); type: cell-based; settings: 72 h, mean ± SD, read-out: inhibitory concentration 50 (IC50), promastigote stage, L. amazonensis
Experimental: (§1) Initial screening of the 160 compounds against Leishmania promastigotes was performed at 10 μM following MMV foundation instructions provided with the box. The compound activity was assessed using the modified alamarBlue® assay (Invitrogen/Life Technologies, Madrid, Spain) with 10^6 promastigotes per well. DMSO concentration never surpassed 0.1% (v/v) to avoid impacting parasite proliferation or morphology. Subsequently, an EnSpire multimode plate reader (PerkinElmer, MA, USA) was used to measure fluorescence after 72 h. […] Serial dilutions were made in 96-well plates and incubated with parasites for 72 h after adding alamarBlue®. IC50 values were calculated using SigmaPlot 14.0 (Systat Software Inc., Chicago, IL, USA) based on fluorescence measurements. Each concentration was tested in duplicate across three independent experiments.

[2] = system: Leishmania donovani promastigotes; assay: as above; type: cell-based; settings: 72 h, mean ± SD, w/a: without activity
Experimental: as §1

In the case of CO[C@@H]1[C@H](N(C)C(=O)c2ccccc2)C[C@H]2O[C@]1(C)n1c3ccccc3c3c4c(c5c6ccccc6n2c5c31)C(=O)NC4 [Midostaurin], the IC50 [1] is reported as 670 ± 50 nM and the “inhibitory concentration 50 (IC50), promastigote stage, L. donovani” value [2] is reported as “w/a at 100”.
